Source: patent publication US7074778B2, “Asthma associated factors as targets for treating atopic allergies including asthma and related disorders” (Genaera Corporation, priority 1999, dated 2006)
Several values for one entry are separate records, joined by “and”; a condition that tells them apart may be missing. Identical values can stand only once. For some assays here: The name of at least one read-out is uncertain. For some assays here: At least one structure is not confirmed: it was looked up by name or label, or the drawing left a doubt.

tested on: eosinophils; assay: Bronchoalveolar lavage cellular analysis (eosinophilia) in sensitized mice; format: in vivo, mouse; conditions: FIG. 16
Excerpt: Phenotyping and efficacy of pretreatment. Animals either received no pretreatment or were sensitized by nasal aspiration of Aspergillus fumigatus antigen to assess the effect on bronchial hyperresponsiveness, bronchoalveolar lavage and serum IgE. Mice were challenged with Aspergillus or saline intranasally (Monday, Wednesday and Friday for three weeks) and phenotyped twenty-four hours after the last dose. The effect of pretreatment by aminosteroids was used to assess the effect of down-regulating the IL-9 pathway in mice. To determine the bronchoconstrictor response, respiratory system pressure was measured at the trachea and recorded before and during exposure to the drug. Mice were anesthetized and instrumented as previously described. (Kleeberger et al., (1990) Am. J. Physiol. 258, L313–320; Levitt et al., (1995) Clin. Exp. Allergy 25, 61–63; Ewart et al., (1995) J. Appl. Physiol. 79, 560–566). Airway responsiveness was measured to one or more of the following: 5-hydroxytryptamine, acetylcholine, atracurium or a substance-P analogue. A simple and repeatable measure of the change in peak inspiratory pressure following bronchoconstrictor challenge was used which has been termed the Airway Pressure Time Index (APTI). The APTI was assessed by the change in peak respiratory pressure integrated from the time of injection until the peak pressure returns to baseline or plateau. […]

SMILES	eosinophilia (eosinophils in bronchoalveolar lavage)
C[C@@H]1C[C@H]2[C@@H]3CCC4=CC(=O)C=C[C@]4(C)[C@@]3(F)[C@@H](O)C[C@]2(C)[C@@]1(O)C(=O)CO [dexamethasone]	Inhibition of eosinophilia

tested on: total serum IgG1, IgG2a and IgE; assay: Serum Ig ELISA in sensitized DBA2J mice; format: in vivo, mouse; conditions: FIG. 17
Experimental: Samples were centrifuged to separate cells and serum was collected and used to measure total IgG1, IgG2a and IgE levels. Samples not measured immediately were frozen at −20° C.
Serum Igs were measured using an ELISA antibody-sandwich assay. Microtiter plates were coated, 50 μl per well, with rat anti-murine IgG1, IgG2a or IgE antibody (Southern Biotechnology and PharMingen) at a concentration of 2.5 μg/ml in coating buffer of sodium carbonate-sodium bicarbonate with sodium azide. Plates were covered with plastic wrap and incubated at 4° C. for sixteen hours. The plates were washed three times with a wash buffer of 0.05% Tween-20 in phosphate-buffered saline, incubating for five minutes for each wash. Blocking of nonspecific binding sites was accomplished by adding 200 μl per well 5% bovine serum albumin in phosphate-buffered saline, covering with plastic wrap and incubating for two hours at 37° C. After washing three times with wash buffer, duplicate 50 μll test samples were added to the wells. […] A blank of no sample or standard was used to zero the plate reader (background). […] After five to ten minutes the reaction was stopped with 50 μl of 12.5% sulfuric acid and absorbance was measured at 490 nm on a Dynatech® MR5000 plate reader. A standard curve was constructed from the standards with antigen concentration on the x axis (log scale) and absorbance on the y axis (linear scale). […]

SMILES	total serum IgG1
C[C@@H]1C[C@H]2[C@@H]3CCC4=CC(=O)C=C[C@]4(C)[C@@]3(F)[C@@H](O)C[C@]2(C)[C@@]1(O)C(=O)CO [dexamethasone]	Inhibition of IgG1 production

same assay, conditions: FIG. 18

SMILES	total serum IgE
C[C@@H]1C[C@H]2[C@@H]3CCC4=CC(=O)C=C[C@]4(C)[C@@]3(F)[C@@H](O)C[C@]2(C)[C@@]1(O)C(=O)CO [dexamethasone]	Inhibition of IgE production

tested on: mitogen or antigen stimulated murine or human lymphocytes; assay: Lymphocyte aggregation assay (PHA-PMA mitogen stimulated); format: cell-based; conditions: aggregates of greater than 100 cells, PHA-PMA stimulation
Experimental: Immunomodulatory 3-aminosteroids (FIGS. 3–7 and Table I) were identified in vitro based on their ability to inhibit homo- or hetero-typic aggregation and subsequent proliferation of mitogen or antigen stimulated murine or human lymphocytes. Human or mouse lymphocytes were isolated from peripheral blood by Ficoll-Hypaque as described (Stoeckert et al., (1990) Exp. Hematol. 18. 1164–1170). For mitogen stimulation, 1×10^5 cells per well were plated in varying amounts of 3-aminosteroid compounds and assayed for aggregation and proliferation after twelve hours of stimulation by PHA-PMA mitogens. […] For antigen stimulation, lymphocytes were isolated from BALBc mice which had been sensitized to Aspergillus fumigatus antigen for three weeks and plated at 1×10^5 cells per well with or without 100 units of Aspergillus fulmigatus antigen. Cells were grown for three days and then scored for cellular aggregates and proliferation as described above in the presence or absence of increasing amounts of Compound-B or analogue compounds. […] Similar results were obtained in assays using antigen mediated response to compounds (not shown). […] All of the active compounds shown in Table I as well as rational modifications of these compounds as depicted in FIGS. 8–10 are embodiments of the invention

SMILES	Aggregation Assay Minimum Effective Conc.
C[C@@H](CC1CCOC1=O)C1CCC2C3CC[C@@H]4C[C@@H](NCCN)CC[C@]4(C)C3CC[C@@]21C (mixture of isomers) [Compound-K]	5 µg/mL
COC(=O)CC[C@H](C)C1CCC2C3CC[C@@H]4C[C@@H](NCCNC(C)C)CC[C@]4(C)C3C[C@@H](O)[C@@]21C (some centres unmarked) [AA]	5 µg/mL
COC(=O)CC[C@H](C)C1CCC2C3CC[C@@H]4C[C@@H](N)CC[C@]4(C)C3C[C@@H](O)[C@@]21C (some centres unmarked) [AB]	5 µg/mL
COC(=O)CC[C@H](C)C1CCC2C3CC[C@@H]4C[C@@H](NCCN)CC[C@]4(C)C3C[C@@H](O)[C@@]21C (some centres unmarked) [AC]	5 µg/mL
COC(=O)CC[C@H](C)C1CCC2C3C(CC[C@@]21C)[C@@]1(C)CC[C@H](NCCN)C[C@H]1C[C@@H]3OC(C)=O (some centres unmarked) [AD]	5 µg/mL
COC(=O)CC[C@@H](C)C1CCC2C3C(CC[C@@]21C)[C@@]1(C)CC[C@H](N2CCNCC2)C[C@H]1C[C@H]3O (some centres unmarked) [AE]	5 µg/mL
COC(=O)CC[C@H](C)C1CCC2C3C[C@@H](O)[C@@H]4C[C@@H](NCCCOCCCCOCCCN)CC[C@]4(C)C3CC[C@@]21C (some centres unmarked) [AF]	5 µg/mL
COC(=O)CC[C@@H](C)C1CCC2C3C(CC[C@@]21C)[C@@]1(C)CC[C@H](NCCN)C[C@H]1C[C@H]3O (some centres unmarked) [Compound-B]	5 µg/mL
C[C@@H](CNS(C)(=O)=O)C1CCC2C3CC[C@@H]4C[C@@H](NCCN)CC[C@]4(C)C3CC[C@@]21C (some centres unmarked) [Compound-F]	10 µg/mL and 5 µg/mL
COC(=O)CC[C@H](C)C1CCC2C3C(O)C[C@@H]4C[C@@H](NCCN)CC[C@]4(C)C3CC[C@@]21C (some centres unmarked) [T]	5 µg/mL
COC(=O)CC[C@H](C)C1CCC2C3CC[C@@H]4C[C@@H](NCCC5CCCN5C)CC[C@]4(C)C3C[C@@H](O)[C@@]21C (some centres unmarked) [Z]	5 µg/mL
